Experimental data: patent US9346805B2, “Pyrimidyl cyclopentanes as Akt protein kinase inhibitors” (Array BioPharma Inc., priority 2008, dated 2016)
Some entries share one result that the patent states for a list of compounds.

Chains of the proteins cited; added tags and fusions are not shown. Lines headed by an entry give the natural chain unless they say otherwise; changes in a name come on top.
UniProt P31749: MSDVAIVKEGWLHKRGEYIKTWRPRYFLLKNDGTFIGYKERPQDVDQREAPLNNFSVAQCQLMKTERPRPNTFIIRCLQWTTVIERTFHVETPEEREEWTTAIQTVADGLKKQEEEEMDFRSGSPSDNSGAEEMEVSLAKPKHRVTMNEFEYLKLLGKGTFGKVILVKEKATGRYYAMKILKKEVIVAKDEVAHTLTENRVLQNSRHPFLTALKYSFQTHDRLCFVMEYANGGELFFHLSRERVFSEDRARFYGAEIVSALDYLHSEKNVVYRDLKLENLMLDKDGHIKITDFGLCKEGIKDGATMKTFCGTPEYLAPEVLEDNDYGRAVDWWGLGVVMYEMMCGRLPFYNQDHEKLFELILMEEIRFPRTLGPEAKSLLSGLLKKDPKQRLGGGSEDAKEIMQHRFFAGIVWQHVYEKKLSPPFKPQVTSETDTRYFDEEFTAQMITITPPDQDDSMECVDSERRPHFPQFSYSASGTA

Target: full-length human recombinant active Akt-1 (Homo sapiens, UniProt P31749)
Assay: AKT-1 Kinase Assay (IMAP fluorescence polarization)
Format: biochemical
Conditions: phosphorylation of fluorescently-labeled peptide (Crosstide) by Akt-1; printed as 'less than about'

SMILES | IC50 [µM]
C[C@@H]1CCc2ncnc(N3CC4(CCNCC4)c4c(CNC5CCCC5)cccc43)c21 [Example 72, (R)—N-((1-(5-methyl-6,7-dihydro-5H-cyclopenta[d]pyrimidin-4-yl)spiro[indoline-3,4′-piperidine]-4-yl)methyl)cyclopentanamine] | < 10
CC(C)NCc1c(Cl)ccc2c1C1(CCNCC1)CN2c1ncnc2c1[C@H](C)CC2 [Example 73, (R)—N-((5-chloro-1-(5-methyl-6,7-dihydro-5H-cyclopenta[d]pyrimidin-4-yl)spiro[indoline-3,4′-piperidine]-4-yl)methyl)propan-2-amine] | < 10
C[C@@H]1CCc2ncnc(N3CC4(CCNCC4)c4c3ccc(Cl)c4CNC3CCCC3)c21 [Example 74, (R)—N-((5-chloro-1-(5-methyl-6,7-dihydro-5H-cyclopenta[d]pyrimidin-4-yl)spiro[indoline-3,4′-piperidine]-4-yl)methyl)cyclopentanamine] | < 10
CC(C)NCc1cccc2c1[C@]1(CCNC1)CN2c1ncnc2c1[C@H](C)C[C@H]2O [Example 75, (5R,7R)-4-((S)-4-((isopropylamino)methyl)spiro[indoline-3,3′-pyrrolidine]-1-yl)-5-methyl-6,7-dihydro-5H-cyclopenta[d]pyrimidin-7-ol] | < 10
CC(C)NCc1cccc2c1[C@@]1(CCNC1)CN2c1ncnc2c1[C@H](C)C[C@H]2O [Example 76, (5R,7R)-4-((R)-4-((isopropylamino)methyl)spiro[indoline-3,3′-pyrrolidine]-1-yl)-5-methyl-6,7-dihydro-5H-cyclopenta[d]pyrimidin-7-ol] | < 10
Cc1cccc2c1[C@@]1(CCNC1)CN2c1ncnc2c1[C@H](C)C[C@H]2O [Example 77, (5R,7R)-5-methyl-4-((R)-4-methylspiro[indoline-3,3′-pyrrolidine]-1-yl)-6,7-dihydro-5H-cyclopenta[d]pyrimidin-7-ol] | < 10
C[C@@H]1CCc2ncnc(N3CC4(CCNCC4)c4c(CNc5ncccn5)cccc43)c21 [Example 78, (R)—N-((1-(5-methyl-6,7-dihydro-5H-cyclopenta[d]pyrimidin-4-yl)spiro[indoline-3,4′-piperidine]-4-yl)methyl)pyrimidin-2-amine] | < 10
C[C@@H]1CCc2ncnc(N3CC4(CCNCC4)c4c([C@H]5CCCN5)cccc43)c21 [Example 79, 1-((R)-5-methyl-6,7-dihydro-5H-cyclopenta[d]pyrimidin-4-yl)-4-((R)-pyrrolidin-2-yl)spiro[indoline-3,4′-piperidine]] | < 10
CC[C@@H]1CCc2ncnc(N3CC4(CCNCC4)c4c(CNC(C)C)cccc43)c21 [Example 80, (R)—N-((1-(5-ethyl-6,7-dihydro-5H-cyclopenta[d]pyrimidin-4-yl)spiro[indoline-3,4′-piperidine]-4-yl)methyl)propan-2-amine] | < 10
CC(C)NCc1cccc2c1C1(CCNCC1)CN2c1ncnc2c1[C@H](C1CCCC1)CC2 [Example 81, (S)—N-((1-(5-cyclopentyl-6,7-dihydro-5H-cyclopenta[d]pyrimidin-4-yl)spiro[indoline-3,4′-piperidine]-4-yl)methyl)propan-2-amine] | < 10
CC(C)NCc1cccc2c1C1(CCNCC1)CN2c1ncnc2c1[C@H](C(C)C)CC2 [Example 82, (S)—N-((1-(5-isopropyl-6,7-dihydro-5H-cyclopenta[d]pyrimidin-4-yl)spiro[indoline-3,4′-piperidine]-4-yl)methyl)propan-2-amine] | < 10
CC(C)[C@@H]1CCc2ncnc(N3CC4(CCNCC4)c4c(CNC5CCCC5)cccc43)c21 [Example 83, (S)—N-((1-(5-isopropyl-6,7-dihydro-5H-cyclopenta[d]pyrimidin-4-yl)spiro[indoline-3,4′-piperidine]-4-yl)methyl)cyclopentanamine] | < 10
CC(O)c1cccc2c1C1(CCNCC1)CN2c1ncnc2c1[C@H](C)CC2 (stereo partly drawn) [Example 84, 1-(1-((R)-5-methyl-6,7-dihydro-5H-cyclopenta[d]pyrimidin-4-yl)spiro[indoline-3,4′-piperidine]-4-yl)ethanol] | < 10
C[C@@H]1CCc2ncnc(N3CC4(CCNCC4)c4c(CNCCC(F)(F)F)cccc43)c21 [Example 85, (R)-3,3,3-trifluoro-N-((1-(5-methyl-6,7-dihydro-5H-cyclopenta[d]pyrimidin-4-yl)spiro[indoline-3,4′-piperidine]-4-yl)methyl)propan-1-amine] | < 10
CCNCc1cccc2c1C1(CCNCC1)CN2c1ncnc2c1[C@H](C)CC2 [Example 86, (R)-N-((1-(5-methyl-6,7-dihydro-5H-cyclopenta[d]pyrimidin-4-yl)spiro[indoline-3,4′-piperidine]-4-yl)methyl)ethanamine] | < 10
CCCNCc1cccc2c1C1(CCNCC1)CN2c1ncnc2c1[C@H](C)CC2 [Example 87, (R)-N-((1-(5-methyl-6,7-dihydro-5H-cyclopenta[d]pyrimidin-4-yl)spiro[indoline-3,4′-piperidine]-4-yl)methyl)propan-1-amine] | < 10
C[C@@H]1CCc2ncnc(N3CC4(CCNCC4)c4c(CNCC5CC5)cccc43)c21 [Example 88, (R)-1-cyclopropyl-N-((1-(5-methyl-6,7-dihydro-5H-cyclopenta[d]pyrimidin-4-yl)spiro[indoline-3,4′-piperidine]-4-yl)methyl)methanamine] | < 10
COCCNCc1cccc2c1C1(CCNCC1)CN2c1ncnc2c1[C@H](C)CC2 [Example 89, (R)-2-methoxy-N-((1-(5-methyl-6,7-dihydro-5H-cyclopenta[d]pyrimidin-4-yl)spiro[indoline-3,4′-piperidine]-4-yl)methyl)ethanamine] | < 10
CC(C)NCc1cccc2c1C1(CCN(C)CC1)CN2c1ncnc2c1[C@H](C)CC2 [Example 90, (R)-N-((1′-methyl-1-(5-methyl-6,7-dihydro-5H-cyclopenta[d]pyrimidin-4-yl)spiro[indoline-3,4′-piperidine]-4-yl)methyl)propan-2-amine] | < 10
CNCc1cccc2c1C1(CCNCC1)CN2c1ncnc2c1[C@H](C)CC2 [Example 91, (R)-N-methyl-1-(1-(5-methyl-6,7-dihydro-5H-cyclopenta[d]pyrimidin-4-yl)spiro[indoline-3,4′-piperidine]-4-yl)methanamine] | < 10
C[C@@H]1CCc2ncnc(N3CC4(CCNCC4)c4c(CNC5CCOCC5)cccc43)c21 [Example 92, (R)-N-((1-(5-methyl-6,7-dihydro-5H-cyclopenta[d]pyrimidin-4-yl)spiro[indoline-3,4′-piperidine]-4-yl)methyl)tetrahydro-2H-pyran-4-amine] | < 10
C[C@@H]1CCc2ncnc(N3CC4(CCNCC4)c4c(CNCC(F)F)cccc43)c21 [Example 93, (R)-2,2-difluoro-N-((1-(5-methyl-6,7-dihydro-5H-cyclopenta[d]pyrimidin-4-yl)spiro[indoline-3,4′-piperidine]-4-yl)methyl)ethanamine] | < 10
CC(C)CNCc1cccc2c1C1(CCNCC1)CN2c1ncnc2c1[C@H](C)CC2 [Example 94, (R)-2-methyl-N-((1-(5-methyl-6,7-dihydro-5H-cyclopenta[d]pyrimidin-4-yl)spiro[indoline-3,4′-piperidine]-4-yl)methyl)propan-1-amine] | < 10
CCC(C)NCc1cccc2c1C1(CCNCC1)CN2c1ncnc2c1[C@H](C)CC2 (stereo partly drawn) [Example 95, N-((1-((R)-5-methyl-6,7-dihydro-5H-cyclopenta[d]pyrimidin-4-yl)spiro[indoline-3,4′-piperidine]-4-yl)methyl)butan-2-amine] | < 10
CCC(CC)NCc1cccc2c1C1(CCNCC1)CN2c1ncnc2c1[C@H](C)CC2 [Example 96, (R)-N-((1-(5-methyl-6,7-dihydro-5H-cyclopenta[d]pyrimidin-4-yl)spiro[indoline-3,4′-piperidine]-4-yl)methyl)pentan-3-amine] | < 10
CNC(=O)CNCc1cccc2c1C1(CCNCC1)CN2c1ncnc2c1[C@H](C)CC2 [Example 97, (R)-N-methyl-2-((1-(5-methyl-6,7-dihydro-5H-cyclopenta[d]pyrimidin-4-yl)spiro[indoline-3,4′-piperidine]-4-yl)methylamino)acetamide] | < 10
C[C@@H]1CCc2ncnc(N3CC4(CCNCC4)c4c(CNCc5ccccc5)cccc43)c21 [Example 98, (R)-N-benzyl-1-(1-(5-methyl-6,7-dihydro-5H-cyclopenta[d]pyrimidin-4-yl)spiro[indoline-3,4′-piperidine]-4-yl)methanamine] | < 10
C[C@@H]1CCc2ncnc(N3CC4(CCNCC4)c4c(CNC5CCC(C)(C)CC5)cccc43)c21 [Example 99, (R)-4,4-dimethyl-N-((1-(5-methyl-6,7-dihydro-5H-cyclopenta[d]pyrimidin-4-yl)spiro[indoline-3,4′-piperidine]-4-yl)methyl)cyclohexanamine] | < 10
C[C@@H]1CCc2ncnc(N3CC4(CCNCC4)c4c(CNc5ccccn5)cccc43)c21 [Example 100, (R)-N-((1-(5-methyl-6,7-dihydro-5H-cyclopenta[d]pyrimidin-4-yl)spiro[indoline-3,4′-piperidine]-4-yl)methyl)pyridin-2-amine] | < 10
C[C@@H]1CCc2ncnc(N3CC4(CCNCC4)c4c(CN(c5ccccn5)c5ccccn5)cccc43)c21 [Example 101, (R)-N-((1-(5-methyl-6,7-dihydro-5H-cyclopenta[d]pyrimidin-4-yl)spiro[indoline-3,4′-piperidine]-4-yl)methyl)-N-(pyridin-2-yl)pyridin-2-amine] | < 10
